Assay results: PMC12037037 (Proceedings of the National Academy of Sciences of the …, 2025)

Tested on: prefrontal cortex gene expression
Assay: Transcriptomics (bulk mRNA sequencing of the prefrontal cortex)
Format: in vivo, mice
Conditions: 1 mg/kg IP; for log2FoldChange vs vehicle: mPFC 24 h; for Number of genes in the downregulated group / Number of genes in the upregulated group: p < 0.01 and absolute log2 FC > 0.2; for Number of genes in the downregulated group / Number of genes in the upregulated group / Number of differentially expressed genes (DEGs) compared to VEH: PFC 24 h; for Number of differentially expressed genes (DEGs) compared to VEH: uncorrected p < 0.01

Row | Structure (SMILES) | log2FoldChange vs vehicle (gene Cav2 (ENSMUSG00000000058)) | log2FoldChange vs vehicle (gene Cdc45 (ENSMUSG00000000028)) | log2FoldChange vs vehicle (gene Gnai3 (ENSMUSG00000000001)) | log2FoldChange vs vehicle (gene Narf (ENSMUSG00000000056)) | log2FoldChange vs vehicle (gene Scml2 (ENSMUSG00000000037)) | Number of genes in the downregulated group | Number of genes in the upregulated group | Number of differentially expressed genes (DEGs) compared to VEH
1 | CCN(CC)C(=O)[C@@H]1C=C2c3cccc4ccn(c34)C[C@H]2N(C)C1 [(+)-JRT] | -0.008109 | 0.1746 | -0.04695 | 0.04152 | 0.2378 | 34 | 18 | 114
2 | CCN(CC)C(=O)[C@@H]1C=C2c3cccc4[nH]cc(c34)C[C@H]2N(C)C1 [LSD, lysergic acid diethylamide] |  |  |  |  |  | 45 | 48 | 198
